Test results published in patent US10335400B2, “Treatment of tauopathies with mGluR5 antagonists” (priority 2014, dated 2019).

Tested on: PP2Ac
Experiment: PP2A regulatory factors (pTyr307-PP2Ac, demethylated Leu309, I1PP2A, I2PP2A) by Western blots in rat brain slices
Type: cell-based
Details: BMAA-treated rat brain slices (1 mM, 2 h)
Procedure: Male Wistar rats (Charles River Laboratories), 2-3 months old, were anesthetized by i.p. injection with 50 mg/kg Nembutal. The animals were decapitated when deeply anesthetized. The brains were removed immediately and cooled in ice-cold (4° C.) oxygenated artificial cerebrospinal fluid (aCSF) consisting of 126 mM NaCl, 3.5 mM KCl, 1.2 mM NaH2PO4, 1.3 mM MgCl2, 2 mM CaCl2, 11 mM D(+) glucose, and 25 mM NaHCO3 (pH 7.4) for 7-8 min. Each brain then was divided sagittally, and 400-μm-thick coronal slices were made with a Camden Vibraslicer (WP, Inc.). The slices were transferred into a chamber containing the oxygenated aCSF and were incubated at 33° C. for 2 h in the presence or absence of 1 mM, β-N ? methylamino-L-alanine (BMAA) dissolved in 10 mM NaHCO3 (Sigma). The oxygenation of the aCSF was carried out by bubbling the solution with a mixture of 95% O2 and 5% CO2 during the entire procedure. At the end of incubation, the brain slices were homogenized with homogenizing buffer [50 mM Tris·HCl (pH 7.4), 8.5% (wt/vol) sucrose, 2 mM EDTA, 2 mM EGTA, 10 mM (3-mercaptoethanol, 5 mM benzamidine, 0.5 mM 4-(2-Aminoethyl) benzenesulfonyl fluoride hydrochloride (AEBSF), 4 μg/mL pepstatin A, and 10 μg/mL each of aprotinin and leupepin] at a ratio of 9.0 mL buffer/1.0 g tissue slices. The homogenates were divided into two parts. One part was centrifuged at 16,000×g for 10 min, and the resulting supernatant was used to assay protein phosphatase 2A (PP2A) activity. Into the other half, an equal volume of phosphatase-inhibitor mixture (20 mM 3-glycerophosphate, 2 mM Na3VO4, and 100 mM NaF) was added immediately, and the samples were used for Western blots.
Protein was fractionated by 10% SDS/PAGE, transferred to PVDF membrane, and then blocked with 5% skim milk for 1 h at room temperature. […] The protein bands were detected with the enhanced chemiluminescence reagents (Thermo Scientific). Band intensity was measured by Multi-Gauge V3 software (Fuji Photo Film).

CNC[C@H](N)C(=O)O [BMAA, β-N-methylamino-L-alanine]
no significant changes: level of I1PP2A | level of I2PP2A | level of Leu309 demethylated PP2A
